Data: article PMC4906169
Results are given in words; binding and its absence hold for the method and conditions named. Some entries that bind do so weakly or less than the wild type. Tags and fused reporters may be left off the sequences shown.

T1: STELLO2 (STL2), split-ubiquitin fusion in yeast (Arabidopsis thaliana) (UniProt Q9SCN0)
T1 sequence: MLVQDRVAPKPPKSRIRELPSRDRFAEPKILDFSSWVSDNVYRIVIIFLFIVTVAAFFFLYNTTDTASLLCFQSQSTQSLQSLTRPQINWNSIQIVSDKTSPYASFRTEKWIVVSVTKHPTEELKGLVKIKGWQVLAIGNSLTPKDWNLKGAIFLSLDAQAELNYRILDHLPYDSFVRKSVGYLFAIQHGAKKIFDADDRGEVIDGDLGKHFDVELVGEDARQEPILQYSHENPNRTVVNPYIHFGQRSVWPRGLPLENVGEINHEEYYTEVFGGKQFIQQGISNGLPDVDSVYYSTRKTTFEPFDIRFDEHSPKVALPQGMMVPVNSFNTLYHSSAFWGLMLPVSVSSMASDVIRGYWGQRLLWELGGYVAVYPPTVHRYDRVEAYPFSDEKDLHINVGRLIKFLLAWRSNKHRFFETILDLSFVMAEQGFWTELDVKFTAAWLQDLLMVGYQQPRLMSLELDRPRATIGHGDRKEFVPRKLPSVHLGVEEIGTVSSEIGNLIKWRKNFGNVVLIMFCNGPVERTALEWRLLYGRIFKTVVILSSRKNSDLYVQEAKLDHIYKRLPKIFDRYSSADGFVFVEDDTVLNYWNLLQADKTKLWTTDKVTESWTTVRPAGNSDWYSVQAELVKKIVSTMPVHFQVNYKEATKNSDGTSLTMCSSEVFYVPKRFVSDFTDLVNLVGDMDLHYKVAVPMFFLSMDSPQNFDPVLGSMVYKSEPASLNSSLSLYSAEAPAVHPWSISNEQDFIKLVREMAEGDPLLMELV

T2: STELLO1 (STL1), split-ubiquitin fusion in yeast (Arabidopsis thaliana) (UniProt O22943)
T2 sequence: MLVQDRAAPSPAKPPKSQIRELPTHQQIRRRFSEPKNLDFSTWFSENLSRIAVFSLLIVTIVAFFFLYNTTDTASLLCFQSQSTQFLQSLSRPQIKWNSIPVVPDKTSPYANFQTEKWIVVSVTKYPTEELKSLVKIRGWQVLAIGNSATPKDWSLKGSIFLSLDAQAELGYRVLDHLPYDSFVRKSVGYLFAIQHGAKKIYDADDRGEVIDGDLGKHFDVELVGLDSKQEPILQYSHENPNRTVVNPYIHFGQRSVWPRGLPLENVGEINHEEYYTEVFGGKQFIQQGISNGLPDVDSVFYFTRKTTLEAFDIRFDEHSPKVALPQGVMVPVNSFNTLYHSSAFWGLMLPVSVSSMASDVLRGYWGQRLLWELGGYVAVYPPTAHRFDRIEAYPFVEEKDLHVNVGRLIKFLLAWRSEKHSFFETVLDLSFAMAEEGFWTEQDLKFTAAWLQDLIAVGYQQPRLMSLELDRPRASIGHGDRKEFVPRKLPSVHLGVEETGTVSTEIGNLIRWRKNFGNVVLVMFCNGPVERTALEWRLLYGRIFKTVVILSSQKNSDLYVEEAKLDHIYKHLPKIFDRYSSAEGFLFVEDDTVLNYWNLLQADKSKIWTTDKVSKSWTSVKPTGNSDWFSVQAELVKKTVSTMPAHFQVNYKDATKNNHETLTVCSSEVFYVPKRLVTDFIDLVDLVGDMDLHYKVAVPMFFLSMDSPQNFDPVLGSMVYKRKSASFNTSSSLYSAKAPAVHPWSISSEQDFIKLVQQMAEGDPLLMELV


Key:
[1] = target: T1, STELLO2 (STL2), split-ubiquitin fusion in yeast (Arabidopsis thaliana); test: two-hybrid; split-ubiquitin membrane yeast two-hybrid (MbYTH); STLs as bait (pTFB1), NubG preys (pADSL-Nx); yeast strain NYM51; growth of at least 50 spotted colonies after 4 days at 28 °C on SD lacking Leu, Trp, His and Ade with 150 mM 3-ammonium-triazole
[2] = target: T2, STELLO1 (STL1), split-ubiquitin fusion in yeast (Arabidopsis thaliana); test: as above

| Binder | binding [1] | binding [2] |
| --- | --- | --- |
| Cellulose synthase CesA1, NubG prey fusion in yeast (protein, UniProt O48946 1-1081) MEASAGLVAGSYRRNELVRIRHESDGGTKPLKNMNGQICQICGDDVGLAETGDVFVACNECAFPVCRPCYEYERKDGTQCCPQCKTRFRRHRGSPRVEGDEDEDDVDDIENEFNYAQGANKARHQRHGEEFSSSSRHESQPIPLLTHGHTVSGEIRTPDTQSVRTTSGPLGPSDRNAISSPYIDPRQPVPVRIVDPSKDLNSYGLGNVDWKERVEGWKLKQEKNMLQMTGKYHEGKGGEIEGTGSNGEELQMADDTRLPMSRVVPIPSSRLTPYRVVIILRLIILCFFLQYRTTHPVKNAYPLWLTSVICEIWFAFSWLLDQFPKWYPINRETYLDRLAIRYDRDGEPSQLVPVDVFVSTVDPLKEPPLVTANTVLSILSVDYPVDKVACYVSDDGSAMLTFESLSETAEFAKKWVPFCKKFNIEPRAPEFYFAQKIDYLKDKIQPSFVKERRAMKREYEEFKVRINALVAKAQKIPEEGWTMQDGTPWPGNNTRDHPGMIQVFLGHSGGLDTDGNELPRLIYVSREKRPGFQHHKKAGAMNALIRVSAVLTNGAYLLNVDCDHYFNNSKAIKEAMCFMMDPAIGKKCCYVQFPQRFDGIDLHDRYANRNIVFFDINMKGLDGIQGPVYVGTGCCFNRQALYGYDPVLTEEDLEPNIIVKSCCGSRKKGKSSKKYNYEKRRGINRSDSNAPLFNMEDIDEGFEGYDDERSILMSQRSVEKRFGQSPVFIAATFMEQGGIPPTTNPATLLKEAIHVISCGYEDKTEWGKEIGWIYGSVTEDILTGFKMHARGWISIYCNPPRPAFKGSAPINLSDRLNQVLRWALGSIEILLSRHCPIWYGYHGRLRLLERIAYINTIVYPITSIPLIAYCILPAFCLITDRFIIPEISNYASIWFILLFISIAVTGILELRWSGVSIEDWWRNEQFWVIGGTSAHLFAVFQGLLKVLAGIDTNFTVTSKATDEDGDFAELYIFKWTALLIPPTTVLLVNLIGIVAGVSYAVNSGYQSWGPLFGKLFFALWVIAHLYPFLKGLLGRQNRTPTIVIVWSVLLASIFSLLWVRINPFVDANPNANNFNGKGGVF | binds | binds |
| Cellulose synthase CesA6, NubG prey fusion in yeast (protein, UniProt Q94JQ6 1-1084) MNTGGRLIAGSHNRNEFVLINADENARIRSVQELSGQTCQICRDEIELTVDGEPFVACNECAFPVCRPCYEYERREGNQACPQCKTRFKRLKGSPRVEGDEEEDDIDDLDNEFEYGNNGIGFDQVSEGMSISRRNSGFPQSDLDSAPPGSQIPLLTYGDEDVEISSDRHALIVPPSLGGHGNRVHPVSLSDPTVAAHPRPMVPQKDLAVYGYGSVAWKDRMEEWKRKQNEKLQVVRHEGDPDFEDGDDADFPMMDEGRQPLSRKIPIKSSKINPYRMLIVLRLVILGLFFHYRILHPVKDAYALWLISVICEIWFAVSWVLDQFPKWYPIERETYLDRLSLRYEKEGKPSGLSPVDVFVSTVDPLKEPPLITANTVLSILAVDYPVDKVACYVSDDGAAMLTFEALSETAEFARKWVPFCKKYCIEPRAPEWYFCHKMDYLKNKVHPAFVRERRAMKRDYEEFKVKINALVATAQKVPEDGWTMQDGTPWPGNSVRDHPGMIQVFLGSDGVRDVENNELPRLVYVSREKRPGFDHHKKAGAMNSLIRVSGVLSNAPYLLNVDCDHYINNSKALREAMCFMMDPQSGKKICYVQFPQRFDGIDRHDRYSNRNVVFFDINMKGLDGLQGPIYVGTGCVFRRQALYGFDAPKKKKGPRKTCNCWPKWCLLCFGSRKNRKAKTVAADKKKKNREASKQIHALENIEEGRVTKGSNVEQSTEAMQMKLEKKFGQSPVFVASARMENGGMARNASPACLLKEAIQVISCGYEDKTEWGKEIGWIYGSVTEDILTGFKMHSHGWRSVYCTPKLAAFKGSAPINLSDRLHQVLRWALGSVEIFLSRHCPIWYGYGGGLKWLERLSYINSVVYPWTSLPLIVYCSLPAICLLTGKFIVPEISNYASILFMALFSSIAITGILEMQWGKVGIDDWWRNEQFWVIGGVSAHLFALFQGLLKVLAGVDTNFTVTSKAADDGEFSDLYLFKWTSLLIPPMTLLIINVIGVIVGVSDAISNGYDSWGPLFGRLFFALWVIIHLYPFLKGLLGKQDRMPTIIVVWSILLASILTLLWVRVNPFVAKGGPILEICGLDCL | binds | binds |

More lines, now with the values ahead:

| binding [1] | binding [2] | Binder |
| --- | --- | --- |
| binds |  | STELLO2 (STL2), split-ubiquitin fusion in yeast (protein, UniProt Q9SCN0 1-765) MLVQDRVAPKPPKSRIRELPSRDRFAEPKILDFSSWVSDNVYRIVIIFLFIVTVAAFFFLYNTTDTASLLCFQSQSTQSLQSLTRPQINWNSIQIVSDKTSPYASFRTEKWIVVSVTKHPTEELKGLVKIKGWQVLAIGNSLTPKDWNLKGAIFLSLDAQAELNYRILDHLPYDSFVRKSVGYLFAIQHGAKKIFDADDRGEVIDGDLGKHFDVELVGEDARQEPILQYSHENPNRTVVNPYIHFGQRSVWPRGLPLENVGEINHEEYYTEVFGGKQFIQQGISNGLPDVDSVYYSTRKTTFEPFDIRFDEHSPKVALPQGMMVPVNSFNTLYHSSAFWGLMLPVSVSSMASDVIRGYWGQRLLWELGGYVAVYPPTVHRYDRVEAYPFSDEKDLHINVGRLIKFLLAWRSNKHRFFETILDLSFVMAEQGFWTELDVKFTAAWLQDLLMVGYQQPRLMSLELDRPRATIGHGDRKEFVPRKLPSVHLGVEEIGTVSSEIGNLIKWRKNFGNVVLIMFCNGPVERTALEWRLLYGRIFKTVVILSSRKNSDLYVQEAKLDHIYKRLPKIFDRYSSADGFVFVEDDTVLNYWNLLQADKTKLWTTDKVTESWTTVRPAGNSDWYSVQAELVKKIVSTMPVHFQVNYKEATKNSDGTSLTMCSSEVFYVPKRFVSDFTDLVNLVGDMDLHYKVAVPMFFLSMDSPQNFDPVLGSMVYKSEPASLNSSLSLYSAEAPAVHPWSISNEQDFIKLVREMAEGDPLLMELV |
| binds | binds | Cellulose synthase CesA7, NubG prey fusion in yeast (protein, UniProt Q9SWW6 1-1026) MEASAGLVAGSHNRNELVVIHNHEEPKPLKNLDGQFCEICGDQIGLTVEGDLFVACNECGFPACRPCYEYERREGTQNCPQCKTRYKRLRGSPRVEGDEDEEDIDDIEYEFNIEHEQDKHKHSAEAMLYGKMSYGRGPEDDENGRFPPVIAGGHSGEFPVGGGYGNGEHGLHKRVHPYPSSEAGSEGGWRERMDDWKLQHGNLGPEPDDDPEMGLIDEARQPLSRKVPIASSKINPYRMVIVARLVILAVFLRYRLLNPVHDALGLWLTSVICEIWFAVSWILDQFPKWFPIERETYLDRLSLRYEREGEPNMLAPVDVFVSTVDPLKEPPLVTSNTVLSILAMDYPVEKISCYVSDDGASMLTFESLSETAEFARKWVPFCKKFSIEPRAPEMYFTLKVDYLQDKVHPTFVKERRAMKREYEEFKVRINAQVAKASKVPLEGWIMQDGTPWPGNNTKDHPGMIQVFLGHSGGFDVEGHELPRLVYVSREKRPGFQHHKKAGAMNALVRVAGVLTNAPFMLNLDCDHYVNNSKAVREAMCFLMDPQIGKKVCYVQFPQRFDGIDTNDRYANRNTVFFDINMKGLDGIQGPVYVGTGCVFKRQALYGYEPPKGPKRPKMISCGCCPCFGRRRKNKKFSKNDMNGDVAALGGAEGDKEHLMSEMNFEKTFGQSSIFVTSTLMEEGGVPPSSSPAVLLKEAIHVISCGYEDKTEWGTELGWIYGSITEDILTGFKMHCRGWRSIYCMPKRPAFKGSAPINLSDRLNQVLRWALGSVEIFFSRHSPLWYGYKGGKLKWLERFAYANTTIYPFTSIPLLAYCILPAICLLTDKFIMPPISTFASLFFISLFMSIIVTGILELRWSGVSIEEWWRNEQFWVIGGISAHLFAVVQGLLKILAGIDTNFTVTSKATDDDDFGELYAFKWTTLLIPPTTVLIINIVGVVAGISDAINNGYQSWGPLFGKLFFSFWVIVHLYPFLKGLMGRQNRTPTIVVIWSVLLASIFSLLWVRIDPFVLKTKGPDTSKCGINC |
